Test results taken from article PMC10861516.
No constants are given. Whether binding was seen depends on the method and setting. In cells and extracts the contact can be indirect. Binding can be weak; no strength is given. Tags and fused reporters may be left off the sequences shown.

Target: T1, Flag-tagged human EFHD2 (EF-hand domain-containing protein D2) (human) (UniProt Q96C19)
T1 sequence: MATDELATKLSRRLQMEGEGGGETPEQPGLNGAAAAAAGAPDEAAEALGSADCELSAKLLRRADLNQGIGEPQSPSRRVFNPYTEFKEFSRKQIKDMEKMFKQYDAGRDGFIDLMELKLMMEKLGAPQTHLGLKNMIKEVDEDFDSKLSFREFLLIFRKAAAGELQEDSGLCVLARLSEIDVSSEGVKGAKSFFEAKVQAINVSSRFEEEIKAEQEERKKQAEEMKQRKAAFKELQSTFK
Experiment: co-IP; lysates of HCT-116 cells overexpressing Flag-EFHD2, treated with 50 ng/ml TNF for the indicated time, immunoprecipitated with anti-FLAG M2 magnetic beads, western blot

Substance	binding
Cofilin (human (endogenous in HCT-116))	binds
TNF receptor I (TNFR1) (human (endogenous in HCT-116))	binds
